The list does not hold the whole screen: it gathers tests that were run many times, whatever their T/C, doses with no T/C, and many T/C values between a quarter and a half above the control. Further doses and runs are listed elsewhere. T/C is the treated group as % of the vehicle group. Some entries give survivors of the animals treated and no T/C: the source holds a T/C of zero for them, seemingly a mark for toxic or unscored doses. Some doses without a T/C left all or most animals alive at the check, yet need not have been tolerated: the source hardly ever lists a survival T/C far under the control, and the zero likely stands for such cases as well. Counts of survivors are from the toxicity check (mostly the fifth day) where no day follows; animals may have died later. Schedule codes are those of the source, taken here to give the interval after Q, in days (D) or hours (H), and the number of doses after X. Where survival is the endpoint, this PubChem deposit counts one and a half times the control or more as active, and values a quarter to a half above the control carry no call in these data; other NCI protocols may use other cut-offs.
System: BDF1 mice, B16 melanoma ip, median survival T/C
Experiment: NCI In Vivo Anticancer Drug Screen. Data for tumor model B16 Melanoma (intraperitoneal) in B6D2F1 (BDF1) mice
Conditions: T/C endpoint: median survival time, higher T/C = longer survival
Method in brief: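 Transplantable tumor model; survival or tumor size measured; reported as T/C, treated over vehicle control.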

[1] = dose: 400.0 mg/kg/injection, schedule: Q01DX009 (ip), vehicle: saline with Tween-80
[2] = dose: 200.0 mg/kg/injection, schedule: Q01DX009 (ip), vehicle: Klucel (hydroxypropylcellulose) (HPC)
[3] = dose: 400.0 mg/kg/injection, schedule: Q01DX009 (ip), vehicle: Klucel (hydroxypropylcellulose) (HPC)
[4] = dose: 25.0 mg/kg/injection, schedule: Q01DX009 (ip), vehicle: Klucel (hydroxypropylcellulose) (HPC)
[5] = dose: 50.0 mg/kg/injection, schedule: Q01DX009 (ip), vehicle: Klucel (hydroxypropylcellulose) (HPC)

SMILES: CCN1/C(=C/C=C/c2oc3ccccc3[n+]2CC)Oc2ccccc21
- survivor count (dose: 0.04 mg/kg/injection, schedule: Q01DX009 (ip), vehicle: saline sonified): 3 of 6
- survivor count (dose: 0.08 mg/kg/injection, schedule: Q01DX009 (ip), vehicle: saline sonified): 2 of 6
- survivor count (dose: 0.15 mg/kg/injection, schedule: Q01DX009 (ip), vehicle: saline sonified): 2 of 6
- survivor count (dose: 0.3 mg/kg/injection, schedule: Q01DX009 (ip), vehicle: saline sonified): 0 of 6

SMILES: Cc1ccc(S(=O)(=O)NC(=S)S)cc1
- T/C (dose: 12.5 mg/kg/injection, schedule: Q01DX009 (ip), vehicle: saline with Tween-80): 129 % of control
- T/C (dose: 50.0 mg/kg/injection, schedule: Q01DX009 (ip), vehicle: saline with Tween-80): 144 % of control
- T/C [1]: 131 % of control
- survivor count [1]: 2 of 9

SMILES: CC(C)CC(N)C(=O)OCc1ccccc1 (centres undefined)
- survivor count (dose: 100.0 mg/kg/injection, schedule: Q01DX009 (ip), vehicle: saline): 10 of 10

SMILES: O=C(/C=C/C(=O)Oc1ccc(Cl)cc1Cl)Oc1ccc(Cl)cc1Cl
- survivor count [2]: 10 of 10
- survivor count [3]: 10 of 10

SMILES: CCCCNC(=O)Nc1ccc(CC)cc1
- survivor count [3]: 6 of 10

SMILES: O=NN(CCF)C(=O)NC1CCS(=O)(=O)CC1
- T/C (dose: 1.9 mg/kg/injection, schedule: Q01DX001 (ip), vehicle: saline): 136 % of control

SMILES: C[n+]1c(-c2cccc(OCCOCCOc3cccc(-c4c5cc(N)ccc5c5ccc(N)cc5[n+]4C)c3)c2)c2cc(N)ccc2c2ccc(N)cc21
- T/C (dose: 1.0 mg/kg/injection, schedule: Q01DX009 (ip), vehicle: water): 137 % of control
- T/C (dose: 2.0 mg/kg/injection, schedule: Q01DX009 (ip), vehicle: water): 145 % of control
- survivor count (dose: 4.0 mg/kg/injection, schedule: Q01DX009 (ip), vehicle: water): 10 of 10

SMILES: C[CH2][Pb]([CH2]C)([CH2]C)[O]C(=O)COC
- survivor count (dose: 6.25 mg/kg/injection, schedule: Q01DX009 (ip), vehicle: Klucel (hydroxypropylcellulose) (HPC)): 9 of 10
- survivor count (dose: 12.5 mg/kg/injection, schedule: Q01DX009 (ip), vehicle: Klucel (hydroxypropylcellulose) (HPC)): 0 of 10
- survivor count [4]: 0 of 10
- survivor count [5]: 0 of 10

SMILES: Cc1ccccc1-n1c(C)nc2ccccc2c1=O
- survivor count [4]: 10 of 10
- survivor count (dose: 100.0 mg/kg/injection, schedule: Q01DX009 (ip), vehicle: Klucel (hydroxypropylcellulose) (HPC)): 9 of 10
- survivor count [2]: 9 of 10

SMILES: O=P(N1CCOCC1)(N1CC1)N1CC1
- survivor count (dose: 25.0 mg/kg/injection, schedule: Q01DX009 (ip), vehicle: saline): 10 of 10
- survivor count (dose: 50.0 mg/kg/injection, schedule: Q01DX009 (ip), vehicle: saline): 8 of 10

SMILES: COc1cc([C@@H]2c3cc4c(cc3[C@@H](OC3OC5COC(C)OC5C(O)C3O)[C@H]3COC(=O)[C@H]23)OCO4)cc(OC)c1O (some centres undefined)
- survivor count (dose: 16.0 mg/kg/injection, schedule: Q01DX009 (ip), vehicle: Klucel (hydroxypropylcellulose) (HPC)): 6 of 6
- survivor count (dose: 20.0 mg/kg/injection, schedule: Q01DX009 (ip), vehicle: saline): 10 of 10
- survivor count (dose: 32.0 mg/kg/injection, schedule: Q01DX009 (ip), vehicle: Klucel (hydroxypropylcellulose) (HPC)): 6 of 6
- survivor count (dose: 40.0 mg/kg/injection, schedule: Q01DX009 (ip), vehicle: saline): 10 of 10

SMILES: Nc1ccc(F)cc1[N+](=O)[O-]
- T/C (dose: 37.5 mg/kg/injection, schedule: Q01DX009 (ip), vehicle: Klucel (hydroxypropylcellulose) (HPC)): 127 % of control

SMILES: CC(=O)c1ccc2c(c1)N(CCCN1CCN(CCO)CC1)c1ccccc1S2
- survivor count (dose: 6.25 mg/kg/injection, schedule: Q01DX009 (ip), vehicle: saline): 9 of 10
- survivor count (dose: 12.5 mg/kg/injection, schedule: Q01DX009 (ip), vehicle: saline): 9 of 10

SMILES: C[C@H]1C[C@@H]2[C@H]([C@@H](O)C[C@@]3(C)[C@H]2CC[C@]3(O)C(=O)CO)[C@@]2(C)C=CC(=O)C=C12
- T/C [5]: 126 % of control

SMILES: CC(=O)NC1CCCCC1
- T/C (dose: 200.0 mg/kg/injection, schedule: Q04DX003 (ip), vehicle: saline with Tween-80): 129 % of control

Source: PubChem BioAssay AID192 (DTP/NCI, 2004)
